The other results are listed elsewhere or left out.

By UniProt entry, the sequences of proteins in these tests, tags left out.
UniProt Q0JBA9, entry or part of it: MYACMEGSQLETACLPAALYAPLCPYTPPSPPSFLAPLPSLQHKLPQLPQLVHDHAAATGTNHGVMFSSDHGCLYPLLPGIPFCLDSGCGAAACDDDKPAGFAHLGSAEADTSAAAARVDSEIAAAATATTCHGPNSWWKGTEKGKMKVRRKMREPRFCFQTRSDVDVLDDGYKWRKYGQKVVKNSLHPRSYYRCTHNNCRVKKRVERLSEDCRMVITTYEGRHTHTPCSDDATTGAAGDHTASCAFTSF

In the assay the target is OsWRKY34 (Oryza sativa, UniProt Q0JBA9 1-250). In words: protein-binding microarray (RPBM); PBS, 2% BSA, 51.3 ng/ul salmon testes DNA, 50 uM zinc acetate, 200 nM TF, 25 C, 1 h; high values mean tight binding. The note with it: protein: recombinant; tags: N-terminal polyhistidine and DsRed monomer fusion (pET32a); label: CyDye5-dUTP incorporated in the synthesized complementary strand; 3' TTTTT single-stranded linker to array surface; dsDNA, one strand shown. Summed up:
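Transcription factors, each fused N-terminally to a polyhistidine tag and DsRed, were expressed in E. coli BL21-CodonPlus and purified on Ni–NTA. A custom Agilent array was made double-stranded by primer extension with Cy5-dUTP and blocked with 2% BSA. It was incubated with 200 nM protein in PBS, 2% BSA, salmon testes DNA and 50 µM zinc acetate at 25 °C for 1 h, then washed. The binding signal is per-feature fluorescence intensity (arbitrary units) read on an Axon 4000B scanner.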
With “CTTTTTTATTGATGCTCCAACCTAGTTTCACATTTGATTTCGGAGTCACCTAGTGCAG”, the binding signal was 8510 fluorescence intensity (a.u.).
To “CGTGTGGGTGGGTGGGTGGAGTGGACTGGTTTCTGTGAGCCGGAGTCACCTAGTGCAG” belongs 18500 fluorescence intensity (a.u.).
For “ACCGTCAACGACCGTTGACTGCGCCACAATCAAGCACAGTCGGAGTCACCTAGTGCAG” the value was 8050 fluorescence intensity (a.u.); for “AAGAGTACGGGTGGGGATGCTTTGGAGTTCACTCCAACTCCGGAGTCACCTAGTGCAG”, 10300 fluorescence intensity (a.u.).
Turning to “GGCCATTGCTGACCTGCTGCCTCTACCTGCTTCTTCCTCACGGAGTCACCTAGTGCAG”, the binding signal was 9990 fluorescence intensity (a.u.).
As for “TAGATCATCATTTCGTTCGTCACAGCCTTGTACAATCTTCCGGAGTCACCTAGTGCAG”, the binding signal is 9200 fluorescence intensity (a.u.).
In the case of “GTCTTTTGATTCTTGACTGCAGACCAATTTCTGTATTCCACGGAGTCACCTAGTGCAG”, the binding signal is 10400 fluorescence intensity (a.u.).
For “TTTCCCCTATGCACCGAGTGGTTCGGTTGTACCTTATTTTCGGAGTCACCTAGTGCAG” the value was 8670 fluorescence intensity (a.u.); for “TCATCCTATTTCGTTTTTTTTTTTACTCTTTTACCCTCCGCGGAGTCACCTAGTGCAG”, 10300 fluorescence intensity (a.u.).
For “AACACACTTACCTACCACTACCGGGCACCACAGACTACTCCGGAGTCACCTAGTGCAG” the value was 9820 fluorescence intensity (a.u.); for “AGGTACTATGGGCTTAACTTTCCTCGGTTGCCCAGCAACTCGGAGTCACCTAGTGCAG”, 8180 fluorescence intensity (a.u.); for “GGGTCGTTTTTTTGGCGGTTAAATTATCTGGGTCTGTTCGCGGAGTCACCTAGTGCAG”, 13500 fluorescence intensity (a.u.).
To “ACACACACATATATACTTTTTTCTTGGTGTATTAGTAAGCCGGAGTCACCTAGTGCAG” belongs 8460 fluorescence intensity (a.u.); to “TATACTTTTTTTTGGGGTAAAGTTGTCAAAAGTGTCTATACGGAGTCACCTAGTGCAG”, 8640 fluorescence intensity (a.u.).
Consider “TTCTACTCTCCCACTCCTCTCTAACCACTGTACTATATACCGGAGTCACCTAGTGCAG”, for which the binding signal is 8610 fluorescence intensity (a.u.).
To “GCCCCGTGCCCATGCTGATTCCACCACCTCCCTGTAATCCCGGAGTCACCTAGTGCAG” belongs 8100 fluorescence intensity (a.u.); to “CCAATCACGTCCCACCGAATCGCCACGTCAGCTCTGGTCCCGGAGTCACCTAGTGCAG”, 9010 fluorescence intensity (a.u.); to “TGTGTCTCTTTCACAGCGACACCCGCCCTTGTTGCGTTGCCGGAGTCACCTAGTGCAG”, 8120 fluorescence intensity (a.u.).
For “CTCTGGTTTTGTTTTCCAAGTTTCCTGCATTCCCGGATATCGGAGTCACCTAGTGCAG” the value was 9340 fluorescence intensity (a.u.); for “TCAGGTTATGCTCTACCAAGTTGGACTTTTTTTAGTTATACGGAGTCACCTAGTGCAG”, 8690 fluorescence intensity (a.u.).
Take “GCTCTCTCTCTCTCTCTCCCGCCGCCGCGCCAACCACCTCCGGAGTCACCTAGTGCAG”: the binding signal was 12600 fluorescence intensity (a.u.).
For “AACTAAACTCGGCCATACTCTCATCCAGGTTGGAAGAATTCGGAGTCACCTAGTGCAG” the value was 8290 fluorescence intensity (a.u.); for “ATTTTGTGGGGTCAAGGTCGTCTCCGCTGCAATGGCGGTCCGGAGTCACCTAGTGCAG”, 9470 fluorescence intensity (a.u.).
For “GAACGGTTCAGTTATTCAGTTCTCGTTTTGGGGTGCGTGCCGGAGTCACCTAGTGCAG” the value was 8070 fluorescence intensity (a.u.); for “TCCACTCCACCACCACCACCAACATCGCACAGTCAGTCACCGGAGTCACCTAGTGCAG”, 10800 fluorescence intensity (a.u.); for “TGCACCGGTGCAAGTGTGGGAGGGGTGTTGTACGTCGCTACGGAGTCACCTAGTGCAG”, 10400 fluorescence intensity (a.u.).
To “ACCGGCAGGGCAACTTCGGTCAGACCGCGATCCGTCGATTCGGAGTCACCTAGTGCAG” belongs 8600 fluorescence intensity (a.u.).
On to “CCATGGATTTCACTCTATATCCTGTTCTCTTTAATCATTCCGGAGTCACCTAGTGCAG”, for which the binding signal was 10200 fluorescence intensity (a.u.).
On to “ATCCTTGTTAGTTACATGCATGTGTATAGTTTATTAATTTCGGAGTCACCTAGTGCAG”, for which the binding signal is 10700 fluorescence intensity (a.u.).
For the sequence “GATGGTGTGTTTTTATTTTCCTTTTTGTTTTCTTGATTATCGGAGTCACCTAGTGCAG”, the binding signal is 10300 fluorescence intensity (a.u.).
Take “TGCTCTCTGCTGCTGTTGTGCAGTCCAGTCAAGAACCGACCGGAGTCACCTAGTGCAG”: the binding signal is 8140 fluorescence intensity (a.u.).
To “TAGTTATGATTCGGTTACTTTTTTTTAGTTTTGAACCTTTCGGAGTCACCTAGTGCAG” belongs 8510 fluorescence intensity (a.u.); to “CTGTTGTTCGACGCTTGGAGCTCCTCGTGCTCACGTTTCACGGAGTCACCTAGTGCAG”, 8030 fluorescence intensity (a.u.).
For “GCCTCTTCTGATCTTCTCCTCTGTATTATGGTGCTTTCACCGGAGTCACCTAGTGCAG” the value was 16100 fluorescence intensity (a.u.); for “CTCAGATAATTGCCTTCCATGTGTTGTTTTGTTAGATGTGCGGAGTCACCTAGTGCAG”, 8650 fluorescence intensity (a.u.).
For “CCCCGCTGCTGTTCGTGTGGCAAGATTTGCTGCCACTGTTCGGAGTCACCTAGTGCAG” the value was 9630 fluorescence intensity (a.u.).
“CGGCGCGGCGGAAGGAGGAGGGGTGGTGGATTCGTAGGGGCGGAGTCACCTAGTGCAG”: the binding signal is 14600 fluorescence intensity (a.u.).
As to “CCACCACATATTTTCACCGCTTCTCATTTTTCCCTTCGCTCGGAGTCACCTAGTGCAG”, the binding signal is 11100 fluorescence intensity (a.u.).
As for “CTCACATCGCATCATCGACATCTCTTCTCAGCAGCAGCCACGGAGTCACCTAGTGCAG”, the binding signal is 10900 fluorescence intensity (a.u.).
For “AGGACCATGGATTAGATTTTGATCACTTACTTTTAAGAGTCGGAGTCACCTAGTGCAG” the value was 8240 fluorescence intensity (a.u.); for “CCCTTTCCCCGCCGCCGCCATCACGTGGTCCTTGAGGAACCGGAGTCACCTAGTGCAG”, 10100 fluorescence intensity (a.u.).
As for “TCTTCCCGGACTGTTAGTTGTTACTTTAGAAAATGTTTTACGGAGTCACCTAGTGCAG”, the binding signal is 12000 fluorescence intensity (a.u.).

These data come from article PMC7819943, “Rice protein-binding microarrays: a tool to detect cis-acting elements near promoter regions in rice”.
